Laboratory results: the supplement of paper PMC6078165

Tested on: HCC1143
Test: relative JC-1 red fluorescence (viability) vs pre-drug, coculture with fibroblast (fraction); higher = more viable cancer cells
Procedure: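 JC-1 labelled TNBC cells cocultured 1:1 (1,500 cells each) with CellTrace Violet stained primary or stromal fibroblasts in 384-well plates in FluoroBrite medium, treated with one of 42 anticancer drugs at 0.1, 1, 10 or 100 uM. JC-1 red fluorescence (mitochondrial integrity in cancer cells only) was read by plate reader every 8 h for 72 h. Values are normalised to each well's pre-drug value. The stock of one drug was tenfold lower, so its dose labels may be too high.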

COc1cc([C@@H]2c3cc4c(cc3[C@@H](O[C@@H]3O[C@@H]5CO[C@@H](c6cccs6)O[C@H]5[C@H](O)[C@H]3O)[C@H]3COC(=O)[C@H]23)OCO4)cc(OC)c1O [Teniposide]
relative JC-1 red fluorescence
Details | 8 h | 16 h | 24 h | 32 h | 40 h | 48 h | 56 h | 64 h | 72 h
10 µM, coculture fibroblast: C12385 | 0.887 | 0.86 | 0.83 | 0.791 | 0.733 | 0.73 | 0.716 | 0.701 | 0.703
10 µM, coculture fibroblast: H6013 | 0.7732 | 0.736 | 0.697 | 0.694 | 0.661 | 0.666 | 0.643 | 0.639 | 0.574
10 µM, coculture fibroblast: H6019 | 0.8489 | 0.7957 | 0.7596 | 0.6984 | 0.642 | 0.621 | 0.583 | 0.566 | 0.557
10 µM, coculture fibroblast: H6076 | 0.8192 | 0.8113 | 0.7894 | 0.73 | 0.693 | 0.677 | 0.664 | 0.639 | 0.647
10 µM, coculture fibroblast: H6231 | 0.823 | 0.827 | 0.762 | 0.686 | 0.657 | 0.627 | 0.597 | 0.5613 | 0.559
10 µM, coculture fibroblast: HADF | 0.761 | 0.732 | 0.697 | 0.696 | 0.626 | 0.613 | 0.596 | 0.585 | 0.538
10 µM, coculture fibroblast: HCFa | 0.799 | 0.724 | 0.662 | 0.637 | 0.568 | 0.542 | 0.503 | 0.474 | 0.423
10 µM, coculture fibroblast: HCPF | 0.8131 | 0.872 | 0.808 | 0.68 | 0.712 | 0.685 | 0.647 | 0.61 | 0.605
10 µM, coculture fibroblast: HHSteC | 0.858 | 0.802 | 0.751 | 0.718 | 0.637 | 0.609 | 0.57 | 0.547 | 0.503
10 µM, coculture fibroblast: HMF | 0.818 | 0.851 | 0.788 | 0.715 | 0.715 | 0.683 | 0.651 | 0.625 | 0.612
10 µM, coculture fibroblast: HPFa | 0.8903 | 0.8227 | 0.7955 | 0.714 | 0.672 | 0.656 | 0.61 | 0.594 | 0.576
10 µM, coculture fibroblast: HUF | 0.84514 | 0.777 | 0.73 | 0.664 | 0.627 | 0.627 | 0.598 | 0.59 | 0.584
10 µM, coculture fibroblast: Hs5 | 0.855 | 0.899 | 0.843 | 0.784 | 0.733 | 0.6913 | 0.6514 | 0.625 | 0.6305
10 µM, coculture fibroblast: Hs27A | 0.735 | 0.679 | 0.638 | 0.66 | 0.555 | 0.563 | 0.545 | 0.541 | 0.493
10 µM, coculture fibroblast: Hs343T | 0.8138 | 0.85 | 0.771 | 0.671 | 0.6266 | 0.587 | 0.544 | 0.513 | 0.496
10 µM, coculture fibroblast: WS1 | 0.8359 | 0.761 | 0.708 | 0.634 | 0.596 | 0.586 | 0.566 | 0.554 | 0.548
100 µM, coculture fibroblast: C12385 | 0.858 | 0.81 | 0.764 | 0.766 | 0.8 | 0.77 | 0.772 | 0.735 | 0.681
100 µM, coculture fibroblast: H6013 | 0.8 | 0.765 | 0.759 | 0.784 | 0.762 | 0.795 | 0.778 | 0.78 | 0.69
100 µM, coculture fibroblast: H6019 | 0.892 | 0.849 | 0.8 | 0.745 | 0.72 | 0.717 | 0.69 | 0.695 | 0.68
100 µM, coculture fibroblast: H6076 | 0.834 | 0.797 | 0.77 | 0.769 | 0.717 | 0.733 | 0.75 | 0.772 | 0.808
100 µM, coculture fibroblast: H6231 | 0.847 | 0.8726 | 0.79 | 0.748 | 0.798 | 0.8079 | 0.769 | 0.7351 | 0.7478
100 µM, coculture fibroblast: HADF | 0.767 | 0.728 | 0.721 | 0.751 | 0.694 | 0.72 | 0.712 | 0.701 | 0.623
100 µM, coculture fibroblast: HCFa | 0.855 | 0.812 | 0.79 | 0.833 | 0.87 | 0.898 | 0.876 | 0.863 | 0.807
100 µM, coculture fibroblast: HCPF | 0.859 | 0.86468 | 0.853 | 0.798 | 0.843 | 0.821 | 0.794 | 0.783 | 0.787
100 µM, coculture fibroblast: HHSteC | 0.875 | 0.856 | 0.837 | 0.844 | 0.844 | 0.868 | 0.86 | 0.831 | 0.744
100 µM, coculture fibroblast: HMF | 0.8554 | 0.886 | 0.858 | 0.81 | 0.81 | 0.84 | 0.847 | 0.842 | 0.817
100 µM, coculture fibroblast: HPFa | 0.877 | 0.794 | 0.785 | 0.736 | 0.734 | 0.736 | 0.712 | 0.716 | 0.718
100 µM, coculture fibroblast: HUF | 0.892 | 0.852 | 0.814 | 0.761 | 0.735 | 0.75 | 0.716 | 0.72 | 0.715
100 µM, coculture fibroblast: Hs5 | 0.902 | 0.9221 | 0.9206 | 0.916 | 0.87 | 0.836 | 0.809 | 0.795 | 0.822
100 µM, coculture fibroblast: Hs27A | 0.778 | 0.7383 | 0.7573 | 0.839 | 0.798 | 0.876 | 0.875 | 0.871 | 0.771
100 µM, coculture fibroblast: Hs343T | 0.882 | 0.881 | 0.8538 | 0.822 | 0.7919 | 0.814 | 0.806 | 0.8246 | 0.8505
100 µM, coculture fibroblast: WS1 | 0.863 | 0.807 | 0.787 | 0.748 | 0.75 | 0.768 | 0.753 | 0.753 | 0.762

The reference is the same well before dosing, and untreated signal decays as well.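 Fibroblast labels name human fibroblasts: mostly primary ones from tissues such as uterus (C12385, HUF), lung (H6013), bone (Hs27A), adrenal (HADF) and skin (WS1), plus mammary HMF and breast cancer-associated Hs343T. The cancer cells are basal-like or mesenchymal-like triple-negative breast cancer lines. The paper calls a changed response a hit when it shifts by more than 3x the replicate standard deviation. The tissue of the other fibroblasts is not given here.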
